These are yes or no findings as the source states them, for the method shown. Some entries that bind do so weakly or less than the wild type. For some of these results: Tags and fused reporters may be left off the sequences shown.
Legend:
[1] = biological target: LK26 antigen (human LK26 cancer antigen), on SW620 target cells (human) (UniProt P15328); test: binding to SW620 target cells (cell ELISA), compared with the chimeric antibody
[2] = biological target: LK26 antigen (human LK26 cancer antigen), on SW620 target cells (human) (UniProt P15328); test: ELISA on SW620 target cells

Protein sequences, listed by entry. Tags and fused reporters are not part of them. Residues count along the entry.
UniProt P15328, residues 25-234: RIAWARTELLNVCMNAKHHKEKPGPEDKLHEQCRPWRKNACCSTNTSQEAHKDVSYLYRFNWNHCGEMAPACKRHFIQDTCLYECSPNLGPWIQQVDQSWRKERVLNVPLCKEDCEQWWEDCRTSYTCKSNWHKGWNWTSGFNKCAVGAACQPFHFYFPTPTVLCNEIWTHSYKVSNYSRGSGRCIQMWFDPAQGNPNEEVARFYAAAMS

Binder | binding [1] | binding [2]
hybrid antibody: humanized heavy chain from KOL mutagenesis (LK26KOLHuVH) with chimeric LK26 light chain (antibody, human IgG1, V domains shown) VH: EVQLVESGGGVVQPGRSLRLSCSASGFTFSGYGLSWVRQAPGKGLEWVAMISSGGSYTYYADSVKGRFAISRDNAKNTLFLQMDSLRPEDTGVYFCARHGDDPAWFAYWGQGTPVTVSS VL: DIELTQSPALMAASPGEKVTITCSVSSSISSNNLHWYQQKSETSPKPWIYGTSNLASGVPLRFRGFGSGTSYSLTISSMEAEDAATYYCQQWSSYPYMYTFGGGTKLEIK | binds | 
LK26KOLHuVH/HuVKPW,Y (antibody, V domains shown) VH: EVQLVESGGGVVQPGRSLRLSCSASGFTFSGYGLSWVRQAPGKGLEWVAMISSGGSYTYYADSVKGRFAISRDNAKNTLFLQMDSLRPEDTGVYFCARHGDDPAWFAYWGQGTPVTVSS VL: DIQLTQSPSSLSASVGDRVTITCSVSSSISSNNLHWYQQKPGKAPKPWIYGTSNLASGVPSRFSGSGSGTDYTFTISSLQPEDIATYYCQQWSSYPYMYTFGQGTKVEIK |  | binds
LK26HuVHSLF/HuVKPW,Y (antibody, V domains shown) VH: QVQLQESGPGLVRPSQTLSLTCTASGFTFSGYGLSWVRQPPGRGLEWVAMISSGGSYTYYADSVKGRVTMLRDTSKNSLFLRLSSVTAADTAVYYCARHGDDPAWFAYWGQGTTVTVSS VL: DIQLTQSPSSLSASVGDRVTITCSVSSSISSNNLHWYQQKPGKAPKPWIYGTSNLASGVPSRFSGSGSGTDYTFTISSLQPEDIATYYCQQWSSYPYMYTFGQGTKVEIK |  | binds
LK26HuVHFAIS,N/HuVKPW,Y (antibody, V domains shown) VH: QVQLQESGPGLVRPSQTLSLTCTASGFTFSGYGLSWVRQPPGRGLEWVAMISSGGSYTYYADSVKGRFAISRDNSKNQFSLRLSSVTAADTAVYYCARHGDDPAWFAYWGQGSLVTVSS VL: DIQLTQSPSSLSASVGDRVTITCSVSSSISSNNLHWYQQKPGKAPKPWIYGTSNLASGVPSRFSGSGSGTDYTFTISSLQPEDIATYYCQQWSSYPYMYTFGQGTKVEIK |  | binds

Source: US6348195
